# Measurements taken from the supplement of paper PMC6411743.
# Amino acid sequences for entries named in this document (tags omitted). A change or cut given only in a name is not applied to a line headed by its entry.
# UniProt Q9BY42: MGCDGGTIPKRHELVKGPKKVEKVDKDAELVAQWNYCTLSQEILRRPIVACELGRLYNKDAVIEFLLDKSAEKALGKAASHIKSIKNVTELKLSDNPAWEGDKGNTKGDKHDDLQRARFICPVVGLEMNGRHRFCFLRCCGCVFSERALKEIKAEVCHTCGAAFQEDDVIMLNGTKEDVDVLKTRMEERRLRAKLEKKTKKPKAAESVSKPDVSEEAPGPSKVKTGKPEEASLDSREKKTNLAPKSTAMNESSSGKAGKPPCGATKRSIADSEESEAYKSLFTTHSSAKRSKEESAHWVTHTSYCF
# UniProt Q9Y496, whole entry: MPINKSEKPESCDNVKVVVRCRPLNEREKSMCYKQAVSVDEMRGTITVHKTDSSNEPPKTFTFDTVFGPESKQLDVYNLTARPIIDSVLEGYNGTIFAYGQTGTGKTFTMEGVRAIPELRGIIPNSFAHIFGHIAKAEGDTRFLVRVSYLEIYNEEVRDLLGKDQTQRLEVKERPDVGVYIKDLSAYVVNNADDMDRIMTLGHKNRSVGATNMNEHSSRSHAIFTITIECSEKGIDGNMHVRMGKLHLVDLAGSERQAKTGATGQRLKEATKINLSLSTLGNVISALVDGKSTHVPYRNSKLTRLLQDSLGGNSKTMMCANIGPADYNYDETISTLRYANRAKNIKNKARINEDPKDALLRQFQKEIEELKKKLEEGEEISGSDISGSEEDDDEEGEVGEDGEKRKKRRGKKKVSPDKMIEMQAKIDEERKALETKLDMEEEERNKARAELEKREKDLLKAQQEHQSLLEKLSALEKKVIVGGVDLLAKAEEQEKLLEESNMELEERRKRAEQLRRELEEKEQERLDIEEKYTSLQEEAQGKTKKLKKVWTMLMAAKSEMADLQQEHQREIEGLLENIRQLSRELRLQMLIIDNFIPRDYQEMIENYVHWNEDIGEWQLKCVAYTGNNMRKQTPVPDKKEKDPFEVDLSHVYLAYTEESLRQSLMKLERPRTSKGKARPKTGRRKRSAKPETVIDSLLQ
# UniProt P49917: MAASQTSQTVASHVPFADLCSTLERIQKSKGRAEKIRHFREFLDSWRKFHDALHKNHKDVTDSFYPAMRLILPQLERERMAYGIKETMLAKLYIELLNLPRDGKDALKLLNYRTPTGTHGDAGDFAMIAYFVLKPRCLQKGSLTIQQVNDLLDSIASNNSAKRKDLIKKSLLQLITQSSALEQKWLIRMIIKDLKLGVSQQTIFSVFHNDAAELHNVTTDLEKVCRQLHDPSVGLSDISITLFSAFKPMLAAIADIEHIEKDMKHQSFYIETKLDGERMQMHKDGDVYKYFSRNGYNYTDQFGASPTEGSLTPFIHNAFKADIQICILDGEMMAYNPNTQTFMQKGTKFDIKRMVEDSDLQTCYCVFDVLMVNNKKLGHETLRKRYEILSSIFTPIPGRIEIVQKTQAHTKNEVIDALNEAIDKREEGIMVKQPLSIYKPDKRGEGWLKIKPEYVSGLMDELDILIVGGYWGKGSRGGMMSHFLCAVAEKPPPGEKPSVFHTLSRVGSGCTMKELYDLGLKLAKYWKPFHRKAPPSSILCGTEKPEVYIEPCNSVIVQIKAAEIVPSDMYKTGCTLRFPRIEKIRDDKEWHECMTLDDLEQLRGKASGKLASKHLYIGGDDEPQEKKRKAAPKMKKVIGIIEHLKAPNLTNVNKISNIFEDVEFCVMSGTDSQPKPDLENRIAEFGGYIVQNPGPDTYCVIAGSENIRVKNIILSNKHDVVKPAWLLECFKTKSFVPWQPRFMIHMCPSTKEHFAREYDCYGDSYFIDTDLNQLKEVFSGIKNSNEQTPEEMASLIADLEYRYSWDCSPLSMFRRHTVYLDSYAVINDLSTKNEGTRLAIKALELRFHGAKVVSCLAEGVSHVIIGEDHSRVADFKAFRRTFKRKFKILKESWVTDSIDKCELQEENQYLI
# UniProt Q14527: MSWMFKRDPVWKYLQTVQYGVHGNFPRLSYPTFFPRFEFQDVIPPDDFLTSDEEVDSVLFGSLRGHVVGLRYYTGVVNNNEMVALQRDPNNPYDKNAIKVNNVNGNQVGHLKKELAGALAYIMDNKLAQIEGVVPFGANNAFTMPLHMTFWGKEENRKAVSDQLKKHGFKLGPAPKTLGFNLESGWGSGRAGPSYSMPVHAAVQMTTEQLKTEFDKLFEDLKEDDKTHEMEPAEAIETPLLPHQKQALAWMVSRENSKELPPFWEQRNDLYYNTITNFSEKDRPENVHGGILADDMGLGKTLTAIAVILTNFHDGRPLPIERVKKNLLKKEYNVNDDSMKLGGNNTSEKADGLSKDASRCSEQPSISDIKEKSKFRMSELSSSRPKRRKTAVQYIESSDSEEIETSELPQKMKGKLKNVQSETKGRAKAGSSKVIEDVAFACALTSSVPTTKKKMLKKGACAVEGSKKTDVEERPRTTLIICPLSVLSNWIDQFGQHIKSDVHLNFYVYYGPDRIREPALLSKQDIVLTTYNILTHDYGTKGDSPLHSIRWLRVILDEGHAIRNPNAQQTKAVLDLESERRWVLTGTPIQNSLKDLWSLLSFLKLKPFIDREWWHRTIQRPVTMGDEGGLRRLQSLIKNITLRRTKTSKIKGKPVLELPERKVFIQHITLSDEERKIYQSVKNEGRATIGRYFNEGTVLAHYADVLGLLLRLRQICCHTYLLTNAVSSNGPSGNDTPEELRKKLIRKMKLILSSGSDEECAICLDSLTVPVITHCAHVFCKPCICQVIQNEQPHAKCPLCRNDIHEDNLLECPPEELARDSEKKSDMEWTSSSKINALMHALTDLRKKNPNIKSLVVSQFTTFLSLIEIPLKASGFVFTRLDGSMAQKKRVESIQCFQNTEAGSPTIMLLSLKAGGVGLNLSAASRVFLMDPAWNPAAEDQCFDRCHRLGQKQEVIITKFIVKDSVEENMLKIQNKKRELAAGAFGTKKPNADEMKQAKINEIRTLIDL
# UniProt O00571: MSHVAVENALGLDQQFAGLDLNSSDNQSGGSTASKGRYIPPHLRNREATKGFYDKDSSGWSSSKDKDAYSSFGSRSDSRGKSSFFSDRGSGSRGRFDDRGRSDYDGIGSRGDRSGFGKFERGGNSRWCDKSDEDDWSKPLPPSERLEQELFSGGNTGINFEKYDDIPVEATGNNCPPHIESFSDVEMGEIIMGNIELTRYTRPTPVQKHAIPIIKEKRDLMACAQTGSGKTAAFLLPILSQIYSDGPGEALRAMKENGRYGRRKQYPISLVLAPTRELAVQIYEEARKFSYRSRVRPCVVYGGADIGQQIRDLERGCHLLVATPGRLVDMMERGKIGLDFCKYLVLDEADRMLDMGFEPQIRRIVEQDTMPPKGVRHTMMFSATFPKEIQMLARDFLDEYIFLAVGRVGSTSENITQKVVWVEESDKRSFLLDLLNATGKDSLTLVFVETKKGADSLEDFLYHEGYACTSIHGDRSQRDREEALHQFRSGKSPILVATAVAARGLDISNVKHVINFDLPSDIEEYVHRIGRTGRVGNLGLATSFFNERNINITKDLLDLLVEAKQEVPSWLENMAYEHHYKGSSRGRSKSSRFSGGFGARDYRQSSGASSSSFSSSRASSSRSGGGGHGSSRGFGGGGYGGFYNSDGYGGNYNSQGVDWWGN
# UniProt Q13617, whole entry: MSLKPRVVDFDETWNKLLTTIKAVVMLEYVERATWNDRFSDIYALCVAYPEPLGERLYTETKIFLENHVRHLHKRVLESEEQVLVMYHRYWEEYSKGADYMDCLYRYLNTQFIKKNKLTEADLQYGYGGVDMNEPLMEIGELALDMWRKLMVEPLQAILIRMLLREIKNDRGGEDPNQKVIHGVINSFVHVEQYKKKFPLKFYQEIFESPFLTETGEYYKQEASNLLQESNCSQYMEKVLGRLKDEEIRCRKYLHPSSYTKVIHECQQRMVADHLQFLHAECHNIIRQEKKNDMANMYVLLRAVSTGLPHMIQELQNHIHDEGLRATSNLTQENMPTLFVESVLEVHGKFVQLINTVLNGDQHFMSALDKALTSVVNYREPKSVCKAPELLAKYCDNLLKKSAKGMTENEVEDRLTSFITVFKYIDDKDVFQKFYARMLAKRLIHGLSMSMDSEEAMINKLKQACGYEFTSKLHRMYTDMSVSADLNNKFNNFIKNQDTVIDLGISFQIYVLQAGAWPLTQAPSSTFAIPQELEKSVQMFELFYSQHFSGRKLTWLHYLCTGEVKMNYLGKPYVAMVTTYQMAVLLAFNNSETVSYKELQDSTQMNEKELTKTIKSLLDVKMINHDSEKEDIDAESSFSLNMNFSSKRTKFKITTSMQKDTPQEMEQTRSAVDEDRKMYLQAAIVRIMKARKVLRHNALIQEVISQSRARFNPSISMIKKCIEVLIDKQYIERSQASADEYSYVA
# UniProt Q9BVL4, whole entry: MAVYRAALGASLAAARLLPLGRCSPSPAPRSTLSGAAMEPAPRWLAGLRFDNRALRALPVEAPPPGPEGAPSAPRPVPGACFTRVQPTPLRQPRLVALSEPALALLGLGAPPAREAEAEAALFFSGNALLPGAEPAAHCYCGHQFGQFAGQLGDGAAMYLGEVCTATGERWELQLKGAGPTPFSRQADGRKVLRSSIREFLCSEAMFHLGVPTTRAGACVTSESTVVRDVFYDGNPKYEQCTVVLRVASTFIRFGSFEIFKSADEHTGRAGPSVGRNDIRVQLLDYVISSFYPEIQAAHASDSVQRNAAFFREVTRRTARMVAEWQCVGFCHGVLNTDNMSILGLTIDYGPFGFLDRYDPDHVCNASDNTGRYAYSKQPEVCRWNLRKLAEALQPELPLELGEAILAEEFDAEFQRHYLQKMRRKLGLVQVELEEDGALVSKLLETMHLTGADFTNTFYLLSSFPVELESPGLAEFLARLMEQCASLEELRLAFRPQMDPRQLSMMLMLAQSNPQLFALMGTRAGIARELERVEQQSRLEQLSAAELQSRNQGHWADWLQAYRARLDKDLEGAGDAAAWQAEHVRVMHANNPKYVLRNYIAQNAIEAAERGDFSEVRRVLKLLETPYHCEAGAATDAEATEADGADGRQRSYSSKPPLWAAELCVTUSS
# UniProt Q9H6R4: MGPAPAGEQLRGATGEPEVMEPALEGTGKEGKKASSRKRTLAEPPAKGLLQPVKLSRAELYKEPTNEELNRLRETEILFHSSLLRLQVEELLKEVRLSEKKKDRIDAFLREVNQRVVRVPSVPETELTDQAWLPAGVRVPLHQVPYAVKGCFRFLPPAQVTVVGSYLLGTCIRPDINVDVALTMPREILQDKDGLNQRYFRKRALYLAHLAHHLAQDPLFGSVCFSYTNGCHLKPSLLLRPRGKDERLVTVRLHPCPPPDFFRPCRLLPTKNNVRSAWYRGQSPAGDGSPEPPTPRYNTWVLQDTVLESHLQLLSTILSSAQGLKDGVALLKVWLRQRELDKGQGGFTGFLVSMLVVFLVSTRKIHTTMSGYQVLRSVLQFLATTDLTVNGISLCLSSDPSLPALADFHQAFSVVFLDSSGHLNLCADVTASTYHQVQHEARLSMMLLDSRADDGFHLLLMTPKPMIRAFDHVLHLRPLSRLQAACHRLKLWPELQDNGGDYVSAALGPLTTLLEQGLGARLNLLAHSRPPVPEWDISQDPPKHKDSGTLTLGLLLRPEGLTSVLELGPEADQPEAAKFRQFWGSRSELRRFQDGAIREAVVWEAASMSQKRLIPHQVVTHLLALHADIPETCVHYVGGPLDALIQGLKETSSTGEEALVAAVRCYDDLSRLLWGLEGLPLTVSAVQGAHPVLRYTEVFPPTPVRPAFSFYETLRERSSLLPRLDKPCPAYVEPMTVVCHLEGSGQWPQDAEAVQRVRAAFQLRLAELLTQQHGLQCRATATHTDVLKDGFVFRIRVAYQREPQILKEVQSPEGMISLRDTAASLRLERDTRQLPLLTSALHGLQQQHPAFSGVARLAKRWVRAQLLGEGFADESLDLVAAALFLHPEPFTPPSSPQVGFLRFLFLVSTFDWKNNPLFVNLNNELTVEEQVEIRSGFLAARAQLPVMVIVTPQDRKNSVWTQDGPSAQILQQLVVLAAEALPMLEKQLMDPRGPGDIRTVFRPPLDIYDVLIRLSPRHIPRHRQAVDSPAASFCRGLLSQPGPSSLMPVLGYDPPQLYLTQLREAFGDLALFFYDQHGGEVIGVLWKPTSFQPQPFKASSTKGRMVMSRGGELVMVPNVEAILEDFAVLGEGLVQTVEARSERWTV
# UniProt P62333, whole entry: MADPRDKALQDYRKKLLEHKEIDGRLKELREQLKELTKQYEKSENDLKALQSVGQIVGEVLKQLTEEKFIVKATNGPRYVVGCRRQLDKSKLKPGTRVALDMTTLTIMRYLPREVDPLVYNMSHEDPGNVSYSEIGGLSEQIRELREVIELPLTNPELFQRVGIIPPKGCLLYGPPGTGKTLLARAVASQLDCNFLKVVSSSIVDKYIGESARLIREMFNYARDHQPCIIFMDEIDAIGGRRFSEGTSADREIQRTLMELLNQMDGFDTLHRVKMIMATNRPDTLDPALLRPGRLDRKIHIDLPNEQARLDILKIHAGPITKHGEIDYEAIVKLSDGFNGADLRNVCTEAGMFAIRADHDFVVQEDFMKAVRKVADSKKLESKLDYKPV
# ± gives the standard deviation of the averaged measurements. The list shows a part of the results.
# Compound: Nc1nc2c(ncn2[C@@H]2O[C@H](COP(=O)(O)OP(=O)(O)OP(=O)(O)O)[C@@H](O)[C@H]2O)c(=O)[nH]1 [guanosine triphosphate]
# Test: NP40-soluble protein abundance relative to vehicle (solubility fold change) (ratio); higher = more soluble protein in presence of GTP
# Procedure, shortened: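 Jurkat crude lysate (Dounce-homogenised) was treated with eight concentrations from 0.1 to 10 mM for 10 min at room temperature, then 3 min at 37 °C. It was solubilised with 0.8% NP40 and benzonase (60 min, 4 °C) and ultracentrifuged, and the supernatant was TMT-labelled for LC-MS/MS. Intensities were vsn-normalised, and the value is the fold change against the NP40-processed vehicle per replicate, from three independent experiments.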
target,measurement,setting,value
A0A0A0MQR2|Q9BY42 (UniProt Q9BY42),NP40-soluble protein abundance,concentration: 0.1mM,1 ± 0.038
same,NP40-soluble protein abundance,concentration: 0.5mM,1 ± 0.032
same,NP40-soluble protein abundance,concentration: 1mM,0.985 ± 0.076
same,NP40-soluble protein abundance,concentration: 2mM,0.942 ± 0.1
same,NP40-soluble protein abundance,concentration: 4mM,0.944 ± 0.1
same,NP40-soluble protein abundance,concentration: 6mM,0.947 ± 0.086
same,NP40-soluble protein abundance,concentration: 8mM,0.962 ± 0.072
same,NP40-soluble protein abundance,concentration: 10mM,0.937 ± 0.088
A0A087X011|E9PES4 and related entries (UniProt Q9Y496),NP40-soluble protein abundance,concentration: 0.1mM,1.02 ± 0.012
same,NP40-soluble protein abundance,concentration: 0.5mM,1.025 ± 0.01
same,NP40-soluble protein abundance,concentration: 1mM,0.963 ± 0.019
same,NP40-soluble protein abundance,concentration: 2mM,0.957 ± 0.013
same,NP40-soluble protein abundance,concentration: 4mM,0.953 ± 0.019
same,NP40-soluble protein abundance,concentration: 6mM,0.9374 ± 0.0079
same,NP40-soluble protein abundance,concentration: 8mM,0.952 ± 0.021
same,NP40-soluble protein abundance,concentration: 10mM,0.898 ± 0.049
A0A0C4DGV9|P49917 (UniProt P49917),NP40-soluble protein abundance,concentration: 0.1mM,1.05 ± 0.045
same,NP40-soluble protein abundance,concentration: 0.5mM,1.18 ± 0.14
same,NP40-soluble protein abundance,concentration: 1mM,1.17 ± 0.18
same,NP40-soluble protein abundance,concentration: 2mM,1.27 ± 0.26
same,NP40-soluble protein abundance,concentration: 4mM,1.32 ± 0.22
same,NP40-soluble protein abundance,concentration: 6mM,1.29 ± 0.23
same,NP40-soluble protein abundance,concentration: 8mM,1.24 ± 0.16
same,NP40-soluble protein abundance,concentration: 10mM,1.21 ± 0.17
A0A0C4DGA6|Q14527 (UniProt Q14527),NP40-soluble protein abundance,concentration: 0.1mM,1.032 ± 0.0087
same,NP40-soluble protein abundance,concentration: 0.5mM,1.02 ± 0.02
same,NP40-soluble protein abundance,concentration: 1mM,0.9857 ± 0.0068
same,NP40-soluble protein abundance,concentration: 2mM,0.988 ± 0.033
same,NP40-soluble protein abundance,concentration: 4mM,0.996 ± 0.022
same,NP40-soluble protein abundance,concentration: 6mM,0.984 ± 0.016
same,NP40-soluble protein abundance,concentration: 8mM,0.981 ± 0.018
same,NP40-soluble protein abundance,concentration: 10mM,0.932 ± 0.017
A0A0C4DG40|Q8NF91 and related entries (UniProt Q8NF91),NP40-soluble protein abundance,concentration: 0.1mM,1.01 ± 0.016
same,NP40-soluble protein abundance,concentration: 0.5mM,0.968 ± 0.041
same,NP40-soluble protein abundance,concentration: 1mM,1.03 ± 0.028
same,NP40-soluble protein abundance,concentration: 2mM,0.996 ± 0.057
same,NP40-soluble protein abundance,concentration: 4mM,1.01 ± 0.052
same,NP40-soluble protein abundance,concentration: 6mM,1 ± 0.048
same,NP40-soluble protein abundance,concentration: 8mM,1.04 ± 0.053
same,NP40-soluble protein abundance,concentration: 10mM,1.01 ± 0.1
A0A0D9SF53|A0A0D9SFB3|A0A0D9SG12|O00571 and related entries (UniProt O00571),NP40-soluble protein abundance,concentration: 0.1mM,0.997 ± 0.016
same,NP40-soluble protein abundance,concentration: 0.5mM,1.03 ± 0.0085
same,NP40-soluble protein abundance,concentration: 1mM,1.012 ± 0.0048
same,NP40-soluble protein abundance,concentration: 2mM,1.05 ± 0.018
same,NP40-soluble protein abundance,concentration: 4mM,1.1 ± 0.055
same,NP40-soluble protein abundance,concentration: 6mM,1.17 ± 0.057
same,NP40-soluble protein abundance,concentration: 8mM,1.2 ± 0.051
same,NP40-soluble protein abundance,concentration: 10mM,1.23 ± 0.038
A0A0A0MTN0|Q13617 and related entries (UniProt Q13617),NP40-soluble protein abundance,concentration: 0.1mM,1.05 ± 0.091
same,NP40-soluble protein abundance,concentration: 0.5mM,1.05 ± 0.11
same,NP40-soluble protein abundance,concentration: 1mM,0.946 ± 0.079
same,NP40-soluble protein abundance,concentration: 2mM,0.948 ± 0.12
same,NP40-soluble protein abundance,concentration: 4mM,0.931 ± 0.098
same,NP40-soluble protein abundance,concentration: 6mM,0.94 ± 0.096
same,NP40-soluble protein abundance,concentration: 8mM,0.915 ± 0.054
same,NP40-soluble protein abundance,concentration: 10mM,0.838 ± 0.11
A0A087X0Q9|Q9BVL4 (UniProt Q9BVL4),NP40-soluble protein abundance,concentration: 0.1mM,1.06 ± 0.12
same,NP40-soluble protein abundance,concentration: 0.5mM,1.1 ± 0.068
same,NP40-soluble protein abundance,concentration: 1mM,1.01 ± 0.12
same,NP40-soluble protein abundance,concentration: 2mM,1.1 ± 0.2
same,NP40-soluble protein abundance,concentration: 4mM,1.05 ± 0.17
same,NP40-soluble protein abundance,concentration: 6mM,1.06 ± 0.19
same,NP40-soluble protein abundance,concentration: 8mM,1.01 ± 0.16
same,NP40-soluble protein abundance,concentration: 10mM,1.04 ± 0.22
A0A0A0MRW6|Q9H6R4 and related entries (UniProt Q9H6R4),NP40-soluble protein abundance,concentration: 0.1mM,1.04 ± 0.059
same,NP40-soluble protein abundance,concentration: 0.5mM,1.07 ± 0.16
same,NP40-soluble protein abundance,concentration: 1mM,1.09 ± 0.041
same,NP40-soluble protein abundance,concentration: 2mM,1.28 ± 0.048
same,NP40-soluble protein abundance,concentration: 4mM,1.19 ± 0.14
same,NP40-soluble protein abundance,concentration: 6mM,1.21 ± 0.23
same,NP40-soluble protein abundance,concentration: 8mM,1.25 ± 0.21
same,NP40-soluble protein abundance,concentration: 10mM,1.53 ± 0.43
A0A087X2I1|P62333 (UniProt P62333),NP40-soluble protein abundance,concentration: 0.1mM,1.03 ± 0.051
same,NP40-soluble protein abundance,concentration: 0.5mM,1.06 ± 0.099
same,NP40-soluble protein abundance,concentration: 1mM,1 ± 0.11
same,NP40-soluble protein abundance,concentration: 2mM,1.05 ± 0.15
same,NP40-soluble protein abundance,concentration: 4mM,1.04 ± 0.12
same,NP40-soluble protein abundance,concentration: 6mM,1.04 ± 0.16
same,NP40-soluble protein abundance,concentration: 8mM,1.05 ± 0.15
same,NP40-soluble protein abundance,concentration: 10mM,0.992 ± 0.16

# Given with tabs: entries from further up
target	measurement	setting	value
A0A0A0MQR2|Q9BY42 (UniProt Q9BY42)	NP40-soluble protein abundance	concentration: 4mM	0.944 ± 0.1
A0A0C4DGA6|Q14527 (UniProt Q14527)	NP40-soluble protein abundance	concentration: 0.1mM	1.032 ± 0.0087
A0A0A0MTN0|Q13617 and related entries (UniProt Q13617)	NP40-soluble protein abundance	concentration: 0.5mM	1.05 ± 0.11
same	NP40-soluble protein abundance	concentration: 10mM	0.838 ± 0.11
